Assay results from US8273719B2, “Wrinkle-diminishing agent” (Kao Corporation, priority 2004, dated 2012).
At least one compound was matched to its structure with a doubt left.

Test system: skin which had suffered from photoaging
Experiment: Wrinkle alleviating effect on photoaged (UVA/UVB irradiated) hairless mice: wrinkle score, dermis collagen content, epidermis thickness
Format: in vivo
Settings: result in words
Description: The wrinkle alleviating effect of the antiwrinkle agent of the present invention when applied to a skin which had suffered from photoaging was examined by the following test method. A group of ten hairless mice which were ten weeks old at the start of the test was used. Photoaging was caused by irradiating the mice with UVA and UVB once a day and five times per week for continuous eight weeks. A UVA dose of 20 J/cm^2 was increased to 25 J/cm^2 and then 30 J/cm^2 every week, and a UVB dose of 20 mJ/cm^2 was increased to 30 mJ/cm^2 and then 40 mJ/cm^2 every week, and the respective maximum doses were used on and after the third week. The wrinkle alleviating effect was evaluated in respect of the wrinkle score, the dermis collagen content and the epidermis thickness. The state of wrinkles was rated in accordance with the method of Bissett et. al. (Photochem Photobiol 46:367-378, 1987). Specifically, the wrinkles were macroscopically evaluated with respect to the size and depth and rated in 4 stages: “large and deep wrinkles can be recognized” was rated 3, “some wrinkles can be recognized” was rated 2, “any wrinkles cannot be recognized” was rated 1, and “normal and fine skin is observed” was rated 0. Whole skin was sampled and homogenized by a POLYTRON Homogenizer (manufactured by KINEMATICA AG), and then the collagen fraction was extracted and subjected to acid hydrolysis followed by quantitative determination of a hydroxyproline content using an amino acid analyzer (manufactured by JASCO Corporation). The hydroxyproline content per square centimeter was used as a relative index of the dermis collagen content. […] 0.1 mL of an evaluation sample was applied to the hairless mice at their dorsal skins (diameter: about 2.5 cm) once a day and five times per week from the fifth week after the start of the UV irradiation to the fourth week after the termination of the irradiation. […] The wrinkle alleviating effect was evaluated by comparing the wrinkle score, the collagen content, and the epidermis thickness with those in Comparative Example 1 in which only the base was applied.

## CC1=C(/C=C/C(C)=C/C=C/C(C)=C/C(=O)O)C(C)(C)CCC1 [retinoic acid]
  Collagen content, effect compared to Comparative Example 1 (base only): effective
  Epidermis thickness, effect compared to Comparative Example 1 (base only): increased the epidermis thickness
  Wrinkle score, effect compared to Comparative Example 1 (base only): effective
